This is an account of results in PubChem BioAssay AID256 (DTP/NCI, 2004).

The test deals with CD2F1 mice, L1210 leukemia ip, survival T/C. As to the kind of experiment: NCI In Vivo Anticancer Drug Screen. Data for tumor model L1210 Leukemia (intraperitoneal) in CD2F1 (CDF1) mice. Conditions: T/C endpoint: mean survival time, higher T/C = longer survival. A digest of the protocol: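 Tumor-bearing mice (transplanted tumor) were split into treated and vehicle control groups, and the measured endpoint of each treated group was divided by that of its vehicle controls.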

Setting [1] is: dose: 25.0 mg/kg/injection, schedule: Q01DX009 (ip), vehicle: saline with Tween-80.
[2] abbreviates: dose: 50.0 mg/kg/injection, schedule: Q01DX009 (ip), vehicle: saline with Tween-80.
[3] abbreviates: dose: 25.0 mg/kg/injection, schedule: Q01DX001 (ip), vehicle: DMSO.
The mark [4] stands for this setting: dose: 50.0 mg/kg/injection, schedule: Q01DX001 (ip), vehicle: DMSO.
Where [5] appears, read: dose: 100.0 mg/kg/injection, schedule: Q01DX001 (ip), vehicle: DMSO.
Setting [6] is: dose: 200.0 mg/kg/injection, schedule: Q01DX001 (ip), vehicle: DMSO.

The list does not hold the whole screen: it gathers some chemical classes. Other doses and runs of a compound may be missing. T/C gives the treated animals as a percentage of the vehicle group. Some entries give survivors of the animals treated and no T/C: the source holds a T/C of zero for them, seemingly a mark for toxic or unscored doses. Counts of survivors are from the toxicity check (mostly the fifth day) where no day follows; animals may have died later. Schedules are NCI's codes, taken here to give the interval after Q, in days (D) or hours (H), and the number of doses after X. Where survival is the endpoint, the PubChem record calls one and a half times the control and up active, and a quarter to a half above the control has no call in these data; cut-offs in other NCI protocols can differ. Some doses were run more than once; the values are given in rising order. Counts like (3×) say how often a value occurs here. Some T/C values are marked as having no survivor count here; that says nothing about deaths at the dose. Some T/C values are followed by the survivors on the day toxicity was checked, most often the fifth; without a count or a note in brackets, all were alive then.

With `CC(C)([N+](=O)[O-])C(C)(C)[N+](=O)[O-]`, the T/C is 93 % of control [5 of 6 alive] (dose: 10.0 mg/kg/injection, schedule: Q01DX009 (ip), vehicle: saline with Tween-80); 95 % of control (dose: 20.0 mg/kg/injection, schedule: Q01DX009 (ip), vehicle: saline with Tween-80); 98 % of control (dose: 20.0 mg/kg/injection, schedule: Q04DX003 (ip), vehicle: saline with Tween-80); 90 % of control [4 of 6 alive] (dose: 40.0 mg/kg/injection, schedule: Q01DX009 (ip), vehicle: saline with Tween-80); 92 % of control (dose: 40.0 mg/kg/injection, schedule: Q04DX003 (ip), vehicle: saline with Tween-80). Besides, the survivor count (dose: 80.0 mg/kg/injection, schedule: Q04DX003 (ip), vehicle: saline with Tween-80) is given as 3 of 6.
Consider `OOC1(OOC2(OO)CCCCC2)CCCCC1`, for which the T/C is 102 % of control [survivor count not shown] (dose: 12.5 mg/kg/injection, schedule: Q01DX009 (ip), vehicle: saline with Tween-80); 97 % of control [survivor count not shown] under setting [1]; 102 % of control [survivor count not shown] under setting [2].
Take `S=P(Cl)(Cl)Oc1ccccc1`: the T/C was 105 % of control (dose: 6.25 mg/kg/injection, schedule: Q01DX001 (ip), vehicle: saline with Tween-80); 103 % of control (dose: 12.5 mg/kg/injection, schedule: Q01DX001 (ip), vehicle: saline with Tween-80); 103 % of control (dose: 25.0 mg/kg/injection, schedule: Q01DX001 (ip), vehicle: saline with Tween-80). Besides, the survivor count by setting is: (dose: 100.0 mg/kg/injection, schedule: Q01DX001 (ip), vehicle: saline with Tween-80) 0 of 6; (dose: 200.0 mg/kg/injection, schedule: Q01DX001 (ip), vehicle: saline with Tween-80) 0 of 6; (dose: 400.0 mg/kg/injection, schedule: Q01DX001 (ip), vehicle: saline with Tween-80) 0 of 6.
In the case of `O=P1(N(CCCl)CCCl)NC(O)CCO1` (centres undefined), the T/C was 127 (2×) and 130 % of control under setting [3]; 106 % of control (dose: 31.3 mg/kg/injection, schedule: Q01DX001 (ip), vehicle: DMSO); 125, 128, 134 % of control under setting [4]; 100 % of control (dose: 62.5 mg/kg/injection, schedule: Q01DX001 (ip), vehicle: DMSO); 140 (2×) and 152 % of control under setting [5]; 105 % of control (dose: 125.0 mg/kg/injection, schedule: Q01DX001 (ip), vehicle: DMSO). In addition, the T/C under setting [6] is given as 178, 263, 313 % of control; the T/C (dose: 250.0 mg/kg/injection, schedule: Q01DX001 (ip), vehicle: DMSO) was 106 % of control; the T/C (dose: 266.0 mg/kg/injection, schedule: Q01DX001 (ip), vehicle: DMSO) was 96 % of control; the T/C (dose: 400.0 mg/kg/injection, schedule: Q01DX001 (ip), vehicle: DMSO, evaluated on day 25) was 114 % of control; the T/C (dose: 400.0 mg/kg/injection, schedule: Q01DX001 (ip), vehicle: DMSO, evaluated on day 60) is listed as 606, 644, 681 % of control; the T/C (dose: 500.0 mg/kg/injection, schedule: Q01DX001 (ip), vehicle: DMSO) is 114 % of control. In addition, the T/C (dose: 600.0 mg/kg/injection, schedule: Q01DX001 (ip), vehicle: DMSO) is 121 % of control. Also, the survivor count (dose: 900.0 mg/kg/injection, schedule: Q01DX001 (ip), vehicle: DMSO) was 3 of 6.
Consider `O=P(Cl)(Cl)C(Cl)c1ccccc1` (centres undefined), for which the T/C is, setting by setting: (dose: 75.0 mg/kg/injection, schedule: Q01DX001 (ip), vehicle: saline) 97 % of control; (dose: 75.0 mg/kg/injection, schedule: Q01DX009 (ip), vehicle: saline) 100 % of control; (dose: 75.0 mg/kg/injection, schedule: Q04DX003 (ip), vehicle: saline) 108 % of control; (dose: 150.0 mg/kg/injection, schedule: Q01DX001 (ip), vehicle: saline) 97 % of control; (dose: 150.0 mg/kg/injection, schedule: Q01DX009 (ip), vehicle: saline) 97 % of control; (dose: 150.0 mg/kg/injection, schedule: Q04DX003 (ip), vehicle: saline) 104 % of control. For the same compound, the T/C (dose: 300.0 mg/kg/injection, schedule: Q01DX001 (ip), vehicle: saline) is 88 % of control; the T/C (dose: 300.0 mg/kg/injection, schedule: Q01DX009 (ip), vehicle: saline) was 94 % of control; the T/C (dose: 300.0 mg/kg/injection, schedule: Q04DX003 (ip), vehicle: saline) was 106 % of control.
With `CCCCCc1ccccn1.O=[N+]([O-])c1cc([N+](=O)[O-])c(O)c([N+](=O)[O-])c1`, the T/C by setting is: (dose: 50.0 mg/kg/injection, schedule: Q04DX002 (ip), vehicle: saline with Tween-80) 100 % of control [survivor count not shown]; (dose: 100.0 mg/kg/injection, schedule: Q04DX002 (ip), vehicle: saline with Tween-80) 96 % of control [survivor count not shown]; (dose: 200.0 mg/kg/injection, schedule: Q04DX002 (ip), vehicle: saline with Tween-80) 100 % of control [survivor count not shown].
Consider `O=P1(N(CCCl)CCCl)OCCCN1CCCl` (centres undefined), for which the T/C is 95 and 103 % of control (dose: 12.5 mg/kg/injection, schedule: Q01DX001 (ip), vehicle: water); 107 % of control under setting [3]; 107 and 109 % of control (dose: 25.0 mg/kg/injection, schedule: Q01DX001 (ip), vehicle: water); 133 % of control under setting [4]; 128 and 139 % of control (dose: 50.0 mg/kg/injection, schedule: Q01DX001 (ip), vehicle: water); 234 % of control under setting [5]. Further, the T/C by setting is: (dose: 100.0 mg/kg/injection, schedule: Q01DX001 (ip), vehicle: water) 166 and 175 % of control; under setting [6], 343 % of control; (dose: 200.0 mg/kg/injection, schedule: Q01DX001 (ip), vehicle: water) 330 and 357 % of control; (dose: 400.0 mg/kg/injection, schedule: Q01DX001 (ip), vehicle: DMSO) 468 % of control.
`CC1(C)CN1P(=O)(Nc1ccccn1)N1CC1(C)C` (centres undefined): the T/C under setting [1] is 98 % of control; the T/C under setting [2] was 102 % of control; the T/C (dose: 88.0 mg/kg/injection, schedule: Q01DX009 (ip), vehicle: saline with Tween-80) is 124 % of control; the T/C (dose: 100.0 mg/kg/injection, schedule: Q01DX001 (ip), vehicle: carboxymethylcellulose (CMC)) is 113 % of control; the T/C (dose: 100.0 mg/kg/injection, schedule: Q01DX009 (ip), vehicle: saline with Tween-80) was 119 % of control; the T/C (dose: 132.0 mg/kg/injection, schedule: Q01DX009 (ip), vehicle: saline with Tween-80) is 137 % of control. The T/C is 119 % of control (dose: 200.0 mg/kg/injection, schedule: Q01DX001 (ip), vehicle: carboxymethylcellulose (CMC)); 154 and 165 % of control (dose: 200.0 mg/kg/injection, schedule: Q01DX009 (ip), vehicle: saline with Tween-80); 224 % of control [5 of 6 alive] (dose: 300.0 mg/kg/injection, schedule: Q01DX009 (ip), vehicle: saline with Tween-80); 122 % of control (dose: 400.0 mg/kg/injection, schedule: Q01DX001 (ip), vehicle: carboxymethylcellulose (CMC)).
In the case of `COc1nncc2ccccc12.O=[N+]([O-])c1cc([N+](=O)[O-])c(O)c([N+](=O)[O-])c1`, the T/C reads like this: (dose: 100.0 mg/kg/injection, schedule: Q04DX003 (ip), vehicle: saline with Tween-80) 97 % of control [survivor count not shown]; (dose: 200.0 mg/kg/injection, schedule: Q04DX003 (ip), vehicle: saline with Tween-80) 97 % of control [survivor count not shown]; (dose: 400.0 mg/kg/injection, schedule: Q04DX003 (ip), vehicle: saline with Tween-80) 90 % of control [survivor count not shown].
